Measurements from paper PMC7819943, “Rice protein-binding microarrays: a tool to detect cis-acting elements near promoter regions in rice”.
This is one part of the list.

target: T1, OsSMF1 (Oryza sativa, UniProt Q6ZLB0 1-436); experiment: protein-binding microarray (RPBM); PBS, 2% BSA, 51.3 ng/ul salmon testes DNA, 50 uM zinc acetate, 200 nM TF, 25 C, 1 h; high values mean tight binding; settings: protein: recombinant; tags: N-terminal polyhistidine and DsRed monomer fusion (pET32a); chain copies: 2; label: CyDye5-dUTP incorporated in the synthesized complementary strand; 3' TTTTT single-stranded linker to array surface; dsDNA, one strand shown
T1 sequence: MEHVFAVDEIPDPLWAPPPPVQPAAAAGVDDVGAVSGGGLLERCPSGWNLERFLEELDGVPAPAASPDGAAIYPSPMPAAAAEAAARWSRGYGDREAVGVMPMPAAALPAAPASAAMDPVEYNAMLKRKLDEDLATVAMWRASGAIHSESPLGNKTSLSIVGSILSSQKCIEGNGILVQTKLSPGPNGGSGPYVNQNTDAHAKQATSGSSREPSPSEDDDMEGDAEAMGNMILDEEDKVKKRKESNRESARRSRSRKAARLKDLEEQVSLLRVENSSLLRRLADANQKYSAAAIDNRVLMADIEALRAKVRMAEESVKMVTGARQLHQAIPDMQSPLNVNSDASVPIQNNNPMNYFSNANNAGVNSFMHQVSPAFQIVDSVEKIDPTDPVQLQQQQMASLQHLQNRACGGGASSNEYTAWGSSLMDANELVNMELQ
Procedure, shortened: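 Binding signal is reported as fluorescence intensity per feature (arbitrary units) from an Axon 4000B scanner. Incubation used 200 nM of each Ni–NTA-purified, N-terminally polyhistidine- and DsRed-fused transcription factor from E. coli BL21-CodonPlus on a double-stranded custom Agilent array for 1 h at 25 °C, with 50 µM zinc acetate in the buffer, followed by washing.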

Row | Sequence | binding signal
1 | TGATAGAGGGGATGAGTTTGGACGTCGGCACTCTAGCGACCGGAGTCACCTAGTGCAG | 3290 fluorescence intensity (a.u.)
2 | GAAGAAAGGCCTATAGAAGTCCTATGGGTTCCACACCTTGCGGAGTCACCTAGTGCAG | 3340 fluorescence intensity (a.u.)
3 | CATGCAAACCAACTACAAAATGATGTATTGTGACTAATATCGGAGTCACCTAGTGCAG | 3470 fluorescence intensity (a.u.)
4 | GATCTACCCATGAACGACACATCACGGATACATCGGAATACGGAGTCACCTAGTGCAG | 4340 fluorescence intensity (a.u.)
5 | ACGAAGCACCAACACTGGATACGCGTCAGGTAGGTGACAGCGGAGTCACCTAGTGCAG | 3180 fluorescence intensity (a.u.)
6 | CTACCGGAATCTGGAACCCTCCACGTCATCGCCACCGCGGCGGAGTCACCTAGTGCAG | 9780 fluorescence intensity (a.u.)
7 | TAGTGTCGCGTCACACTGTCTGCTGTTCGTCGCGCTCTAACGGAGTCACCTAGTGCAG | 7240 fluorescence intensity (a.u.)
8 | TGCCGTCCACGCCATTCGCGACCAGCCACCGTCCTCGCCTCGGAGTCACCTAGTGCAG | 5070 fluorescence intensity (a.u.)
9 | ATTATCGATGCATGTGAGGATGACTTGGCATACTCACGAACGGAGTCACCTAGTGCAG | 9880 fluorescence intensity (a.u.)
10 | CGTACTCCGTAGTCGGACGATCCAGTCATGTGTGTAGCATCGGAGTCACCTAGTGCAG | 4540 fluorescence intensity (a.u.)
11 | GAGTTGAGTTTAGACTTTCTAGAGTGGTATATGTATGTTTCGGAGTCACCTAGTGCAG | 40900 fluorescence intensity (a.u.)
12 | CTTGTATGAGCAAGGTTGCTTGTGGCTCCAGTGATGGTCGCGGAGTCACCTAGTGCAG | 30400 fluorescence intensity (a.u.)
13 | TGGGTTGCTTCTTCCAGCTCAGCCCTTCTTCTAGCACATTCGGAGTCACCTAGTGCAG | 8030 fluorescence intensity (a.u.)
14 | TTGACTACCACGTGGGATTTGCATAAACACATTAGAGCCACGGAGTCACCTAGTGCAG | 6320 fluorescence intensity (a.u.)
15 | ACCCCAATCACTGACGCACCGGGCCCACGTAGCTCGACCCCGGAGTCACCTAGTGCAG | 4950 fluorescence intensity (a.u.)
16 | AAAATTATACAACGCCGTGATGACTTGGAAGTACTTTAGCCGGAGTCACCTAGTGCAG | 4210 fluorescence intensity (a.u.)
17 | CAAGGAGGGAGTTGATGGTGGGATTGATCATGGGAGTTATCGGAGTCACCTAGTGCAG | 3500 fluorescence intensity (a.u.)
18 | TAATTGTATGTTGCCAACCGTACGTGCTCAAAGTCAATTACGGAGTCACCTAGTGCAG | 7810 fluorescence intensity (a.u.)
19 | CTACGAGGTAGAGTTGCAGACACGTCTATAGTAGCCGGACCGGAGTCACCTAGTGCAG | 3780 fluorescence intensity (a.u.)
20 | ATTGGGTTGGTCAAAAGACAGTCACGGTATGAGTGTTGTGCGGAGTCACCTAGTGCAG | 3610 fluorescence intensity (a.u.)
21 | TCCAACGTTTTGGTTTCAATCAGGAGATGACCCGTCAGGACGGAGTCACCTAGTGCAG | 3250 fluorescence intensity (a.u.)

Single values from the list:
binding signal with TCCAACGTTTTGGTTTCAATCAGGAGATGACCCGTCAGGACGGAGTCACCTAGTGCAG reads 3250 fluorescence intensity (a.u.)
binding signal with TAGTGTCGCGTCACACTGTCTGCTGTTCGTCGCGCTCTAACGGAGTCACCTAGTGCAG reads 7240 fluorescence intensity (a.u.)
binding signal with CATGCAAACCAACTACAAAATGATGTATTGTGACTAATATCGGAGTCACCTAGTGCAG reads 3470 fluorescence intensity (a.u.)

Next part.

Row | Sequence | binding signal
22 | TGGATGACAAGGTGGGCCCACACGAAAGGCGAGTGCGTGTCGGAGTCACCTAGTGCAG | 3430 fluorescence intensity (a.u.)
23 | CAAGTGAGTAATCATAGTCATTGCGAGTAGTGCATTCAGTCGGAGTCACCTAGTGCAG | 3340 fluorescence intensity (a.u.)
24 | CTAGTTTACATCTGCAATGTCATGATTTATTTATGGAATACGGAGTCACCTAGTGCAG | 19500 fluorescence intensity (a.u.)
25 | CCACGCGCCCCTCCACGTGGCTCCTGGCCCACCACCAGATCGGAGTCACCTAGTGCAG | 10600 fluorescence intensity (a.u.)
26 | ACGGGTGTGCCCCACCAGATGTGGGCCACCCTATATTTATCGGAGTCACCTAGTGCAG | 3290 fluorescence intensity (a.u.)
27 | AATGAGACGGAGGGAGTAATTTATTTACTCGTTAGTATATCGGAGTCACCTAGTGCAG | 36100 fluorescence intensity (a.u.)
28 | TCCTGTGCCTCTCTCATGGTGTGGGTGTCTGTGTCTTTGACGGAGTCACCTAGTGCAG | 3350 fluorescence intensity (a.u.)
29 | TCTTATCCGTAACCCTGACAGAGTGGATTACCAGATTATACGGAGTCACCTAGTGCAG | 3470 fluorescence intensity (a.u.)
30 | CAATGGCAGACTGTGCACTGCACCATGAGCTTTTAAATTTCGGAGTCACCTAGTGCAG | 3450 fluorescence intensity (a.u.)
31 | AAATGTCATCTGATCACACCTATTAAAATGATGCGACAAACGGAGTCACCTAGTGCAG | 6280 fluorescence intensity (a.u.)
32 | TCAATTGAAGGTTGAGGATGAGACGTGGAAATTAATTACTCGGAGTCACCTAGTGCAG | 3700 fluorescence intensity (a.u.)
33 | GTTGGTTTCAAGTCTGATGGGAAAATTACAGCCTTGCACCCGGAGTCACCTAGTGCAG | 15100 fluorescence intensity (a.u.)
34 | ACTAGTGACATAAGATCGGCCCCACCTGTCAGTTGCATGGCGGAGTCACCTAGTGCAG | 4260 fluorescence intensity (a.u.)
35 | GAAGTAGTCGTGGCCGAACATGACGCCGCCGGGGCGGAGCCGGAGTCACCTAGTGCAG | 4630 fluorescence intensity (a.u.)
36 | ATATATTTTGGTTGTGTAGTTTCACAAAACCACACTATCGCGGAGTCACCTAGTGCAG | 3470 fluorescence intensity (a.u.)
37 | ATGGATTTGTCACGGATCCAAATTCAGTTAGCCCATTAGGCGGAGTCACCTAGTGCAG | 3330 fluorescence intensity (a.u.)
38 | AGGGGAGGAGAAAGAGGTTGGTGACACATGGGTCCCACTTCGGAGTCACCTAGTGCAG | 6790 fluorescence intensity (a.u.)
39 | GAAGGGGATGACACATCTGCCACTGGCGTGTGGGGTCCCCCGGAGTCACCTAGTGCAG | 5320 fluorescence intensity (a.u.)
40 | TCTTCTCTCGTCAAATTAACAGCCTATCGATGATCGATTACGGAGTCACCTAGTGCAG | 3420 fluorescence intensity (a.u.)
41 | TTGGTCTGTTGGTGGCCGGGGCGCGGGCGCGCTTACCTGTCGGAGTCACCTAGTGCAG | 4300 fluorescence intensity (a.u.)
42 | AAAACAAAGACACGCGCTGTAGTGGACACACGCAAGCAGTCGGAGTCACCTAGTGCAG | 5160 fluorescence intensity (a.u.)
